According to paper doi:10.1101/2024.02.06.579055:
These are yes or no findings as the source states them, for the method shown. Binding seen in cells or lysates may run through a third protein. Some binding calls cover weakened binding; strength is not graded here.

The chains behind the UniProt entries cited, without tags or fusion partners. Where a name states a change or a piece, a line headed by the entry shows the natural chain unless it says otherwise.
UniProt P22736, whole entry: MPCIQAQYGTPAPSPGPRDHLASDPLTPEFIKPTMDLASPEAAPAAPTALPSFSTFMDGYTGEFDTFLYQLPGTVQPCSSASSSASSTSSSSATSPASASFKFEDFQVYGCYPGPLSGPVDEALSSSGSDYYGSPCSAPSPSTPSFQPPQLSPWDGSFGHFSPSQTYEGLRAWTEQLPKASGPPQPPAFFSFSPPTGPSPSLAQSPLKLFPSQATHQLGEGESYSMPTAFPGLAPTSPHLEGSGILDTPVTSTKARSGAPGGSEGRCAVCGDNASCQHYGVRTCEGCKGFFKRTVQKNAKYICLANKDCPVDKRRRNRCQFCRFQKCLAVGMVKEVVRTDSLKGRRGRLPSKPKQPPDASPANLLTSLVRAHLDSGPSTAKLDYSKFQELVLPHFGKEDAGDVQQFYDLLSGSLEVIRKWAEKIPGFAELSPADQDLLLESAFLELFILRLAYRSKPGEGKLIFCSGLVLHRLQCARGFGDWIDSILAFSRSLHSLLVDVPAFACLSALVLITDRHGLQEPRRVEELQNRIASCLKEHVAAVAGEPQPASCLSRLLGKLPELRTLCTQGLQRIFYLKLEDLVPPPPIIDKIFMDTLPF
UniProt Q92570, whole entry: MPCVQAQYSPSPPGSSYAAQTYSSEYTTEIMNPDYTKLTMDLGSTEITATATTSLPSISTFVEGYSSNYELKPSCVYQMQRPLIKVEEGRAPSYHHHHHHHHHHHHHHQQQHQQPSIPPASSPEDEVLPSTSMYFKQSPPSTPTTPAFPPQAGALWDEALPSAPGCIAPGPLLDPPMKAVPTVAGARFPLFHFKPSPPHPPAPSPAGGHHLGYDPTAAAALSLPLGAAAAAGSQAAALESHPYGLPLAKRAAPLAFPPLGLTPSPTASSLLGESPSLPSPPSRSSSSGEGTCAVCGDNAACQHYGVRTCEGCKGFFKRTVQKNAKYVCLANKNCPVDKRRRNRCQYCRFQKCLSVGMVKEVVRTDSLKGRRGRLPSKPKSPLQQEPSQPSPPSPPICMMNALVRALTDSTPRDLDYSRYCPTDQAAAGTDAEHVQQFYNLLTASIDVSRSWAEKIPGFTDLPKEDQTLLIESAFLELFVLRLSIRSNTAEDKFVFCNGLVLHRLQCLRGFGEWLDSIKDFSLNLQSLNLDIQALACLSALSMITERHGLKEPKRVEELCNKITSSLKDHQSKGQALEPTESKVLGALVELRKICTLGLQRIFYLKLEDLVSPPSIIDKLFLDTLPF
UniProt P43354, whole entry: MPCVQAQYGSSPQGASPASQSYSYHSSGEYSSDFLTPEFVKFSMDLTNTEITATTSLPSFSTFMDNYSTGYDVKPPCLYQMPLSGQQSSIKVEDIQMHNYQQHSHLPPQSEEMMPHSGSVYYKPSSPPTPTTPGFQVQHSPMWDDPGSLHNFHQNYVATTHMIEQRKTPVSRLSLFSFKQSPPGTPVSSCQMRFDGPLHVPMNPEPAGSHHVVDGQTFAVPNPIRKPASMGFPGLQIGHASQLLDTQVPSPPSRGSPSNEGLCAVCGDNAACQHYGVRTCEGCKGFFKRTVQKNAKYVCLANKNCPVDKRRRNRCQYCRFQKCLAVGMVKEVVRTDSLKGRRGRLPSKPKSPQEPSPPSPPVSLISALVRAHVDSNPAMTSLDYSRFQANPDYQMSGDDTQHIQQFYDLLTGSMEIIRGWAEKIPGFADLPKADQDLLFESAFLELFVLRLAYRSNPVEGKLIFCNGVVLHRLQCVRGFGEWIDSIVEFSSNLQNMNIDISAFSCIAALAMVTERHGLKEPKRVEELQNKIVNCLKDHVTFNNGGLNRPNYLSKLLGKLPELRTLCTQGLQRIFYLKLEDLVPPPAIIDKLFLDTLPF
UniProt P31749, whole entry: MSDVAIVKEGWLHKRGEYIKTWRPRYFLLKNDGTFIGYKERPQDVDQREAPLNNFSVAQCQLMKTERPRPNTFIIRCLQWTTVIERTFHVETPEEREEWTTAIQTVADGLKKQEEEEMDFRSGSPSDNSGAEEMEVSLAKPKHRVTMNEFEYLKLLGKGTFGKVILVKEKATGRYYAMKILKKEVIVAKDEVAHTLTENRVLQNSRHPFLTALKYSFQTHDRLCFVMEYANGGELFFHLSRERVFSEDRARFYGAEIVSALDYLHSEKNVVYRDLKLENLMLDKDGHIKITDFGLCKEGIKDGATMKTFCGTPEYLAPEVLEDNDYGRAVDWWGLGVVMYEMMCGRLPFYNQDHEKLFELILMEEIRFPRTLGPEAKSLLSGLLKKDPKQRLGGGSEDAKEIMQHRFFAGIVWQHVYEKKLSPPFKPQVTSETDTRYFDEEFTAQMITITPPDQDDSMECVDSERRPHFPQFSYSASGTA
UniProt O14744, whole entry: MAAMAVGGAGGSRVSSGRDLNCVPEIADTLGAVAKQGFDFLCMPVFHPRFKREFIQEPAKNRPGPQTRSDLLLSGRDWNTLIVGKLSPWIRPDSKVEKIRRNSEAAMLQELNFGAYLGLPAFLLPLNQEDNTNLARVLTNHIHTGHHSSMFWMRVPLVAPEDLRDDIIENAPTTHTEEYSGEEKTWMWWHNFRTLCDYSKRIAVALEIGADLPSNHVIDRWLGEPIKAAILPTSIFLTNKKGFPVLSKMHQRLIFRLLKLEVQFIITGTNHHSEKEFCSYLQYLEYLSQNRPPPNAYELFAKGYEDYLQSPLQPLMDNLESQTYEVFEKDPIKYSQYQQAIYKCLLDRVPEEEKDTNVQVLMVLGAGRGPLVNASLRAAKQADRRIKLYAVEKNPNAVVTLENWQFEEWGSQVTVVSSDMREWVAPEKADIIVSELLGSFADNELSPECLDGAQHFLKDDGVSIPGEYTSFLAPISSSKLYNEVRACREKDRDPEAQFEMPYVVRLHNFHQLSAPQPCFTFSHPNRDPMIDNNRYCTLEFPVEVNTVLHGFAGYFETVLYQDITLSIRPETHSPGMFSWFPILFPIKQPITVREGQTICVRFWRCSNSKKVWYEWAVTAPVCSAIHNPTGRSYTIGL

Tests used:
Assay in all cases: co-IP
[1] = biological target: Myc-Nur77-R346K (UniProt P22736)
[2] = biological target: Myc-Nur77 (UniProt P22736)
[3] = biological target: Flag-NR4A3 (UniProt Q92570)
[4] = biological target: Flag-NR4A2 (UniProt P43354)

Measured: binding

AKT1-HA (from UniProt P31749 1-480) (enzyme)
binds: [1] | [2]

OFP-PRMT5 (from UniProt O14744 1-637) (enzyme)
binds: all assays above
